# Results: the supplement of paper PMC8728848
# The other results are listed elsewhere or left out.
# How the values were obtained:
# Experiment in all cases: glycan array binding signal (z-score within array); higher = stronger binding
# Conditions in all cases: glycan notation: IUPAC condensed, linker removed
# [1] = target: Gal(b1-4)GlcNAc(a1-6)Gal(b1-4)GlcNAc
# How it was run: (§1)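 Glycan array binding is given as a within-array Z-score, which can be read as non-binding when negative. The arrays, 3228 of them, came from the Consortium for Functional Glycomics database and were retained only where the protein sequence was available. Z-scores were averaged across arrays of the same protein sequence at different concentrations or buffers and across linkers.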
# Gal(b1-4)GlcNAc(b1-2)Man = target: Gal(b1-4)GlcNAc(b1-2)Man
# How it was run: as §1
# [2] = target: Gal(b1-4)GlcNAc(b1-2)Man(a1-3)Man(b1-4)GlcNAc(b1-4)GlcNAc
# How it was run: as §1
# [3] = target: Gal(b1-4)GlcNAc(b1-2)Man(a1-3)[Gal(b1-4)GlcNAc(b1-2)Man(a1-6)]Man(b1-4)GlcNAc(b1-4)GlcNAc
# How it was run: as §1
# [4] = target: Gal(b1-4)GlcNAc(b1-2)Man(a1-3)[Gal(b1-4)GlcNAc(b1-2)Man(a1-6)]Man(b1-4)GlcNAc(b1-4)[Fuc(a1-6)]GlcNAc
# How it was run: as §1
# [5] = target: Gal(b1-4)GlcNAc(b1-2)Man(a1-3)[Gal(b1-4)GlcNAc(b1-2)Man(a1-6)][Gal(b1-4)GlcNAc(b1-4)]Man(b1-4)GlcNAc(b1-4)[Fuc(a1-6)]GlcNAc
# How it was run: as §1
# [6] = target: Gal(b1-4)GlcNAc(b1-2)Man(a1-3)[Gal(b1-4)GlcNAc(b1-2)Man(a1-6)][GlcNAc(b1-4)]Man(b1-4)GlcNAc(b1-4)[Fuc(a1-6)]GlcNAc
# How it was run: as §1
# [7] = target: Gal(b1-4)GlcNAc(b1-2)Man(a1-3)[Gal(b1-4)GlcNAc(b1-2)][GlcNAc(b1-4)]Man(b1-4)GlcNAc(b1-4)GlcNAc
# How it was run: as §1
# [8] = target: Gal(b1-4)GlcNAc(b1-2)Man(a1-3)[GlcNAc(b1-2)Man(a1-6)]Man(b1-4)GlcNAc(b1-4)GlcNAc
# How it was run: as §1
# [9] = target: Gal(b1-4)GlcNAc(b1-2)Man(a1-3)[GlcNAc(b1-4)][Gal(b1-4)GlcNAc(b1-2)Man(a1-6)]Man(b1-4)GlcNAc(b1-4)GlcNAc
# How it was run: as §1
# [10] = target: Gal(b1-4)GlcNAc(b1-2)Man(a1-3)[Man(a1-6)]Man(b1-4)GlcNAc(b1-4)GlcNAc
# How it was run: as §1
# [11] = target: Gal(b1-4)GlcNAc(b1-2)Man(a1-6)Man(b1-4)GlcNAc(b1-4)GlcNAc
# How it was run: as §1
# [12] = target: Gal(b1-4)GlcNAc(b1-2)Man(a1-6)[GlcNAc(b1-2)Man(a1-3)]Man(b1-4)GlcNAc(b1-4)GlcNAc
# How it was run: as §1
# [13] = target: Gal(b1-4)GlcNAc(b1-2)Man(a1-6)[Man(a1-3)]Man(b1-4)GlcNAc(b1-4)GlcNAc
# How it was run: as §1
# [14] = target: Gal(b1-4)GlcNAc(b1-2)[Gal(b1-4)GlcNAc(b1-4)]Man(a1-3)[Gal(b1-4)GlcNAc(b1-2)Man(a1-6)]Man(b1-4)GlcNAc(b1-4)GlcNAc
# How it was run: as §1
# [15] = target: Gal(b1-4)GlcNAc(b1-2)[Gal(b1-4)GlcNAc(b1-4)]Man(a1-3)[Gal(b1-4)GlcNAc(b1-2)[Gal(b1-4)GlcNAc(b1-6)]Man(a1-6)]Man(b1-4)GlcNAc(b1-4)GlcNAc
# How it was run: as §1
# [16] = target: Gal(b1-4)GlcNAc(b1-2)[Gal(b1-4)GlcNAc(b1-4)]Man(a1-3)[GlcNAc(b1-4)][Gal(b1-4)GlcNAc(b1-2)Man(a1-6)]Man(b1-4)GlcNAc(b1-4)GlcNAc
# How it was run: as §1
# [17] = target: Gal(b1-4)GlcNAc(b1-2)[Gal(b1-4)GlcNAc(b1-4)]Man(a1-3)[GlcNAc(b1-4)][Gal(b1-4)GlcNAc(b1-2)[Gal(b1-4)GlcNAc(b1-6)]Man(a1-6)]Man(b1-4)GlcNAc(b1-4)GlcNAc
# How it was run: as §1
# [18] = target: Gal(b1-4)GlcNAc(b1-2)[Gal(b1-4)GlcNAc(b1-6)]Man(a1-6)[Gal(b1-4)GlcNAc(b1-2)Man(a1-3)]Man(b1-4)GlcNAc(b1-4)GlcNAc
# How it was run: as §1
# [19] = target: Gal(b1-4)GlcNAc(b1-2)[Gal(b1-4)GlcNAc(b1-6)]Man(a1-6)[Gal(b1-4)GlcNAc(b1-2)Man(a1-3)]Man(b1-4)GlcNAc(b1-4)[Fuc(a1-6)]GlcNAc
# How it was run: as §1
# [20] = target: Gal(b1-4)GlcNAc(b1-2)[Gal(b1-4)GlcNAc(b1-6)]Man(a1-6)[GlcNAc(b1-4)][Gal(b1-4)GlcNAc(b1-2)Man(a1-3)]Man(b1-4)GlcNAc(b1-4)GlcNAc
# How it was run: as §1
# [21] = target: Gal(b1-4)GlcNAc(b1-2)[Gal(b1-4)GlcNAc(b1-6)]Man(a1-6)[GlcNAc(b1-4)][Gal(b1-4)GlcNAc(b1-2)[Gal(b1-4)GlcNAc(b1-4)]Man(a1-3)]Man(b1-4)GlcNAc(b1-4)[Fuc(a1-6)]GlcNAc
# How it was run: as §1
binder,measurement,setting,value
"CRT-1 (Homo sapiens), P27797 (protein) MLLSVPLLLGLLGLAVAEPAVYFKEQFLDGDGWTSRWIESKHKSDFGKFVLSSGKFYGDEEKDKGLQTSQDARFYALSASFEPFSNKGQTLVVQFTVKHEQNIDCGGGYVKLFPNSLDQTDMHGDSEYNIMFGPDICGPGTKKVHVIFNYKGKNVLINKDIRCKDDEFTHLYTLIVRPDNTYEVKIDNSQVESGSLEDDWDFLPPKKIKDPDASKPEDWDERAKIDDPTDSKPEDWDKPEHIPDPDAKKPEDWDEEMDGEWEPPVIQNPEYKGEWKPRQIDNPDYKGTWIHPEIDNPEYSPDPSIYAYDNFGVLGLDLWQVKSGTIFDNFLITNDEAYAEEFGNETWGVTKAAEKQMKDKQDEEQRLKEEEEDKKRKEEEEAEDKEDDEDKDEDEEDEEDKEEDEEEDVPGQAKDEL",glycan array binding signal (z-score),[1],-0.824
same,glycan array binding signal (z-score),Gal(b1-4)GlcNAc(b1-2)Man,0.889
same,glycan array binding signal (z-score),[2],0.219
same,glycan array binding signal (z-score),[3],-0.484
same,glycan array binding signal (z-score),[4],0.619
same,glycan array binding signal (z-score),[5],-1.18
same,glycan array binding signal (z-score),[6],-0.334
same,glycan array binding signal (z-score),[7],-0.145
same,glycan array binding signal (z-score),[8],-0.836
same,glycan array binding signal (z-score),[9],-0.436
same,glycan array binding signal (z-score),[10],-0.277
same,glycan array binding signal (z-score),[11],0.186
same,glycan array binding signal (z-score),[12],-0.101
same,glycan array binding signal (z-score),[13],0.275
same,glycan array binding signal (z-score),[14],0.215
same,glycan array binding signal (z-score),[15],0.003
same,glycan array binding signal (z-score),[16],-0.448
same,glycan array binding signal (z-score),[17],0.102
same,glycan array binding signal (z-score),[18],-0.519
same,glycan array binding signal (z-score),[19],-0.49
same,glycan array binding signal (z-score),[20],-0.231
same,glycan array binding signal (z-score),[21],-0.451
